Source: article PMC12166272
Results are given in words; binding and its absence hold for the method and conditions named. Binding seen in cells or lysates may run through a third protein. Some binding calls cover weakened binding; strength is not graded here. Sequences can lack the tags named with a protein.

By UniProt entry, the sequences of proteins in these tests, tags left out.
UniProt Q13547: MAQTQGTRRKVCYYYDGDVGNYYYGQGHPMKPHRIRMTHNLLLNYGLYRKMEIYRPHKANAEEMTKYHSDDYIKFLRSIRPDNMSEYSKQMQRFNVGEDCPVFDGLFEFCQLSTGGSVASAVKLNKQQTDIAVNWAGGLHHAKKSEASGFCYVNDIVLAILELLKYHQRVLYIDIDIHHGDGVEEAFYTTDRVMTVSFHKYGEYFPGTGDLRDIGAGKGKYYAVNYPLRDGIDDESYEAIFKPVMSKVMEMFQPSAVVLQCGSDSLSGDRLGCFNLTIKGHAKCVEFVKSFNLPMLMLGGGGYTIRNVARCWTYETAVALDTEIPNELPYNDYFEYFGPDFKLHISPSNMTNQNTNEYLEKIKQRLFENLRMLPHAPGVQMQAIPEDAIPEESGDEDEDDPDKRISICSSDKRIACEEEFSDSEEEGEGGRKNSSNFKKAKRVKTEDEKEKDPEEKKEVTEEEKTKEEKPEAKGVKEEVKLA
UniProt Q14653: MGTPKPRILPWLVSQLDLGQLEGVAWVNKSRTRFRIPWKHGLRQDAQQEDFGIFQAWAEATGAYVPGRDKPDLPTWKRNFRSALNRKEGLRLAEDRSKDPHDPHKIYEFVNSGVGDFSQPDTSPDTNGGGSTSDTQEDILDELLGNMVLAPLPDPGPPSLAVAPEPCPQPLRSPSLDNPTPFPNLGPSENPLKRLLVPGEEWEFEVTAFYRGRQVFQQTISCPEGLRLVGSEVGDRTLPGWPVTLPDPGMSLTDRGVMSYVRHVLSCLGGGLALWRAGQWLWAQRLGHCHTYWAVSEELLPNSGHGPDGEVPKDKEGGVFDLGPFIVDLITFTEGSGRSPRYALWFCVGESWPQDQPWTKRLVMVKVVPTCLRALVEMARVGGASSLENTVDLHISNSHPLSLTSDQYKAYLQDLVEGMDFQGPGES
UniProt Q13568: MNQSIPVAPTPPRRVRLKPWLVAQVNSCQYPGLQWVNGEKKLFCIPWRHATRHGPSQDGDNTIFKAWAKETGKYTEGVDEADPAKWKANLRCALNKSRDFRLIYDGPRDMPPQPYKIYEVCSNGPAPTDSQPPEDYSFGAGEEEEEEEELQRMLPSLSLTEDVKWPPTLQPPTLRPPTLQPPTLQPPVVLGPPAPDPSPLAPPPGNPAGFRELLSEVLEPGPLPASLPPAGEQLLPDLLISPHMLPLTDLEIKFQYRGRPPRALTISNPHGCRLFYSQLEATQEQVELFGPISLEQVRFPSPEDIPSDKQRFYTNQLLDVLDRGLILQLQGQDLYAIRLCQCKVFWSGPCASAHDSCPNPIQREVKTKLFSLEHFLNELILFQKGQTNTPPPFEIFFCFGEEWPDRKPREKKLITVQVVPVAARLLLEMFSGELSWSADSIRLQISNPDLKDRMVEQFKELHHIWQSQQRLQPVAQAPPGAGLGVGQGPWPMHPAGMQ

Tests used:
FLAG-IRF7-K375R = target: T1, FLAG-IRF7-K375R (UniProt Q92985); assay: co-IP; whole-cell extracts of transfected cells (HEK293T) 24 h after transfection, NP-40 lysis buffer; antibody with Protein A/G beads 4 h at 4°C; washed with PBS with 0.1% NP40; immunoblot
T1 sequence: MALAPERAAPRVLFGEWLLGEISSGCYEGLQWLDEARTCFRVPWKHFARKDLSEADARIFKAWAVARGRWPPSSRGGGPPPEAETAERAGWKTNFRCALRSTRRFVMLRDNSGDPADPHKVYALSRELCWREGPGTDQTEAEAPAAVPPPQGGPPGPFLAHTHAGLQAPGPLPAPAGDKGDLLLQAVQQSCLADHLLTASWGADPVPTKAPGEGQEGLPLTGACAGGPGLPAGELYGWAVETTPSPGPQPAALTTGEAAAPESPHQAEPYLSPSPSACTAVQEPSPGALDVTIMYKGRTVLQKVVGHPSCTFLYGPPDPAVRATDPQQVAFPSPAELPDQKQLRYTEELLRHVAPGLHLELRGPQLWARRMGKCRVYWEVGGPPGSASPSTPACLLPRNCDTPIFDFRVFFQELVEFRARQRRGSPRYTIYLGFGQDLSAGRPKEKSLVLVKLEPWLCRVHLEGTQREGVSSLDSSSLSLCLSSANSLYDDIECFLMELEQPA

[1] = target: T2, NEURL3 (construct of the experiments of Figure S1; tag not told) (human) (UniProt Q96EH8); assay: as above
T2 sequence: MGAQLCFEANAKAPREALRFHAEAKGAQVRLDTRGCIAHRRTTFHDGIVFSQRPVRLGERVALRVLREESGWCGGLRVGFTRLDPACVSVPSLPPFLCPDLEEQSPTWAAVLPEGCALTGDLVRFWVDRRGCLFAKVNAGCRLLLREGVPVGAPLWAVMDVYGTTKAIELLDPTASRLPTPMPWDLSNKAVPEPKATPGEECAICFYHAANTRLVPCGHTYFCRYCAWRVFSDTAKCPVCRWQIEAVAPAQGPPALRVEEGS

| binding (FLAG-IRF7-K375R) | binding [1] | Substance |
| --- | --- | --- |
| binds | – | HA-HDAC1 (from UniProt Q13547 1-482) |
| – | binds | IRF3 (transfected, IRF family panel) (from UniProt Q14653 1-427) |
| – | binds weakly | IRF5 (from UniProt Q13568 1-498) |
